Data published in patent publication US9221900B2, “Methods for identifying safe and functional humanized antibodies” (AC IMMUNE S.A., priority 2010, dated 2015).

Tested on: p38MAPK
Experiment: Phospho-p38MAPK immunofluorescence with microglia marker Iba1
Assay type: cell-based, rat
Settings: Aβ1-42 oligomers complexed to antibody

| Substance | cells staining positive for phospho-p38MAPK that were Iba1+ |
| --- | --- |
| MABT-IgG1: same antigen binding sequences as MABT on human IgG1 wild-type backbone with full FcγR-binding capacity | approximately 93% |
| MABT: humanized anti-Aβ monoclonal antibody of IgG4 isotype, affinity matured and humanized form of mouse mMABT | approximately 93% |
